Experimental data reported in PubChem BioAssay AID743255 (National Center for Advancing Translational Sciences (NCATS), 2014).
Out of some 390,000 compounds screened, about 910 (0.23%) were called active. Inconclusive results, whose numbers are uncertain, are shown with a selection of clear calls. Calls follow the shape of the dose curve; as a rule, active = well fitted inhibition curve with a large enough effect; inconclusive = small, poorly fitted or top-dose-only effect; inactive = no such curve, though single readings can be large or run the other way. Where the call is inconclusive, the potency comes from a doubtful curve fit.

The chains behind the UniProt entries cited, without tags or fusion partners. Where a name states a change or a piece, a line headed by the entry shows the natural chain unless it says otherwise.
UniProt O94782: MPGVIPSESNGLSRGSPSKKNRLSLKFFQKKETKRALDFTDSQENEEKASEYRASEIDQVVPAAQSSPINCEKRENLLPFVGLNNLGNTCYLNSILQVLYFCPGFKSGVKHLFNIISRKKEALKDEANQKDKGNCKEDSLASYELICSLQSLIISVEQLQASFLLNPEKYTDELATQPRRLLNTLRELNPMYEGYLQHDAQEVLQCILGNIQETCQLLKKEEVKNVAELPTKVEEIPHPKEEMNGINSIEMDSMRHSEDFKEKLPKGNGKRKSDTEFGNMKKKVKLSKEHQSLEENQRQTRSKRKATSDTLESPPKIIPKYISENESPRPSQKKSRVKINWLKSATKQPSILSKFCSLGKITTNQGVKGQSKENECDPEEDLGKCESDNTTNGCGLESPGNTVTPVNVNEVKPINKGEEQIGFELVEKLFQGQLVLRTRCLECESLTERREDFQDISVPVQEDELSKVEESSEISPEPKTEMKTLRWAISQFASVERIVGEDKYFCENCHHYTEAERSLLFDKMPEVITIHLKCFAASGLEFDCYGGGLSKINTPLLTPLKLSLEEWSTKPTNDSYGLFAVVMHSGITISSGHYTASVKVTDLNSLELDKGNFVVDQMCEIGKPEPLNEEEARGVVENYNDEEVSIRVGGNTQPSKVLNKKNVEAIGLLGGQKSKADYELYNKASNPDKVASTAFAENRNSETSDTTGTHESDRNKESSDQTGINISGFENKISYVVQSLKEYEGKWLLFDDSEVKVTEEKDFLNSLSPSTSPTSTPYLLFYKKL

Each compound was assayed against Ubiquitin carboxyl-terminal hydrolase 1 (Homo sapiens) (UniProt O94782) (assay: Inhibitors of USP1/UAF1: Primary Screen). Details: recombinant USP1/UAF1, Ub-Rhodamine cleavage fluorescence; series mostly up to 57.1 µM.
Summary of the method: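 In this screen, compounds sit with the deubiquitinase complex (1nM) for 15 min at room temperature before Ub-Rho is added at 150nM final. Fluorescence rise is then followed for 6 reads every 60 seconds.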
Also: nearly all actives have a fitted effect of over 60% in size.
Potency is read from the fitted curve at half-maximal effect.

Structure (SMILES)	Potency
CCC(=O)c1ccc(OC(=O)/C=C/c2cc(OC)c(OC)c(OC)c2)cc1	inconclusive: 0.708 µM [inhibitor, full curve, poor fit]
Cc1cc(N(C)C)ccc1N=Nc1ccc2ncccc2c1	inactive
O=C(NCc1noc2ccccc12)Nc1ccc(F)cc1F	inactive
COc1ccccc1NC(=O)CSc1oc(-c2ccco2)nc1S(=O)(=O)c1ccc(Br)cc1	inconclusive: 5.62 µM [inhibitor, partial curve]
CCCNC(=O)c1c(N)n(-c2cccc(OC)c2)c2nc3ccccc3nc12	inconclusive: 50.1 µM [inhibitor, partial curve, poor fit]
COc1cccc(CNC(=O)CCc2nc(-c3ccc(C)cc3)no2)c1	inconclusive: 7.08 µM [inhibitor, full curve, poor fit]
C[C@@H]1COC(=O)[C@@H](CC(=O)OC(C)(C)C)C/C=C\C[C@H](CC(=O)N(CCO)Cc2ccccc2)C(=O)N1	inconclusive: 8.91 µM [inhibitor, partial curve, poor fit]
O=[N+]([O-])c1ccccc1N/N=C\c1ccccc1F	inconclusive: 7.08 µM [inhibitor, single point]
Cc1ccccc1C(=O)NNC(=S)NC(=O)c1ccc(Cl)cc1Cl	inactive
Cc1ccc(CCNC(=O)c2cc3sccc3n2Cc2ccc(Cl)cc2)cc1	inconclusive: 31.6 µM [inhibitor, partial curve, poor fit]
O=C(Cn1nc(Cl)nc1Cl)c1ccccc1	inactive
CCOC(=O)C1=C(CN2CCN(c3cc(C)ccc3C)CC2)NC(=O)NC1c1ccccc1 (stereo unspecified)	inconclusive: 25.1 µM [inhibitor, partial curve, poor fit]
COc1ccc(N(C(=O)c2ccccc2C)S(=O)(=O)c2ccc(C)cc2)cc1	inconclusive: 3.98 µM [inhibitor, full curve, poor fit]
CS(=O)(=O)c1ccc2nc(NC(=O)c3ccco3)sc2c1	inactive
COc1ccccc1Oc1nc2c(C)cccn2c(=O)c1/C=C(\C#N)c1nc2ccccc2[nH]1	inconclusive: 39.8 µM [inhibitor, partial curve, poor fit]
C=C[C@@H]1c2ccccc2N(S(=O)(=O)c2ccc(C)cc2)[C@H](c2ccccc2)C1(C#N)C#N	inconclusive: 2.51 µM [inhibitor, full curve, poor fit]
CCOc1cc(Br)cc(C(c2c(C(=O)O)[nH]c3ccccc23)c2c(C(=O)O)[nH]c3ccccc23)c1O	inconclusive: 39.8 µM [inhibitor, partial curve]
Cc1ccc2nc(-c3c[nH]c4ccccc34)c(Nc3ccccc3)n2c1	inconclusive: 2.82 µM [inhibitor, full curve]
COc1ccc2oc(C(=O)NCc3cc(OC)c(OC)cc3OC)c(C)c2c1	inconclusive: 15.8 µM [inhibitor, partial curve]
CCOc1ccccc1NC(=O)N1CCN(S(C)(=O)=O)CC1	inconclusive: 63.1 µM [inhibitor, partial curve, poor fit]
CCOC(=O)C1CCN(c2c(N(C)Cc3ccco3)c(=O)c2=O)CC1	inconclusive: 35.5 µM [inhibitor, partial curve, poor fit]

Retrieved by structure from the list above:
Structure (SMILES)	Potency
CCC(=O)c1ccc(OC(=O)/C=C/c2cc(OC)c(OC)c(OC)c2)cc1	inconclusive: 0.708 µM [inhibitor, full curve, poor fit]
CCOC(=O)C1=C(CN2CCN(c3cc(C)ccc3C)CC2)NC(=O)NC1c1ccccc1 (stereo unspecified)	inconclusive: 25.1 µM [inhibitor, partial curve, poor fit]

Following part:

Structure (SMILES)	Potency
O=C(c1c(F)c(F)c(F)c(F)c1F)N1CCc2ccccc21	inactive
COc1cc(OC)cc(-c2c(-c3cccs3)c3cc(Br)ccc3n2C)c1	inconclusive: 0.316 µM [inhibitor, full curve]
COc1cccc(C(=O)Nc2cc([N+](=O)[O-])ccc2N2CCN(C)CC2)c1	inconclusive: 31.6 µM [inhibitor, partial curve, poor fit]
CCN(Cc1nc(-c2ccc(OC)cc2)oc1C)S(=O)(=O)c1ccc(Cl)cc1	inactive
Cc1ccc(S(=O)(=O)N(CC(=O)NC2CC3CCC2C3)c2ccccc2)cc1 (stereo unspecified)	inactive
Cc1cccc(NC(=O)c2ccc(F)c(S(=O)(=O)N(C)C3CCCCC3)c2)c1	inconclusive: 0.251 µM [inhibitor, full curve, poor fit]
Cc1cc(C)cc(NC(=O)C2CCCN(S(=O)(=O)c3cnc[nH]3)C2)c1 (stereo unspecified)	inconclusive: 1.41 µM [inhibitor, full curve, poor fit]
O=C(Nc1nnc(C2CC2)s1)c1cc(S(=O)(=O)N2CCCCC2)ccc1N1CCOCC1	inactive
CC1CCCCN1C(=O)CSc1nc2ccccc2nc1Cc1ccc(Cl)cc1 (stereo unspecified)	inactive
Cc1ccc(Nc2nc(N)c([N+](=O)[O-])c(N3CCOCC3)n2)cc1	inactive
O=C(OCc1csc(Nc2ccccc2)n1)c1ccc(Cl)cc1	inconclusive: 20 µM [inhibitor, partial curve]
CCc1cccc(C)c1NC(=O)COCc1cc(-c2ccc3c(c2)OCO3)on1	inconclusive: 0.316 µM [inhibitor, full curve]
O=C(NCC1CCCO1)C(c1cccs1)N(Cc1cccs1)C(=O)c1ccc(-c2ccccc2)[nH]1 (stereo unspecified)	inconclusive: 31.6 µM [inhibitor, partial curve]
COc1ccc(NC(=O)N(C)C[C@H]2Oc3ncc(Br)cc3C(=O)N([C@H](C)CO)C[C@@H]2C)cc1	inactive
O=c1c2c3c(sc2nc(NCCO)n1CCc1ccccc1)CCCCC3	inactive
Cc1cccc(-c2noc(CNC(=O)c3ccc(C)cc3C)n2)c1	inconclusive: 0.708 µM [inhibitor, full curve, poor fit]
CCOC(=O)C1=C(C)Nc2ccccc2N/C1=N\S(=O)(=O)c1ccccc1	inconclusive: 0.398 µM [inhibitor, full curve, poor fit]
CCC1=NN2C(=N)/C(=C\c3ccc(OCCOc4ccccc4OC)cc3)C(=O)N=C2S1	inconclusive: 39.8 µM [inhibitor, partial curve, poor fit]
Nc1nc(C2CCOCC2)cs1	inactive
COC(=O)[C@@]12CCCCN1[C@H](c1ccc(-c3ccc(C(C)=O)cc3)cc1)[C@H]1C(=O)N(C)C(=O)[C@H]12	inconclusive: 5.01 µM [inhibitor, partial curve]
